The source of these data is US20220072097A1, “PEPTIDES AND METHODS FOR TREATING NEURODEGENERATIVE DISORDERS” (OHIO STATE INNOVATION FOUNDATION, priority 2016, published 2022).

Sequences of proteins named here, by UniProt entry; tags and fusion partners are left off. Residues count along the entry.
UniProt P12023, residues 18-770: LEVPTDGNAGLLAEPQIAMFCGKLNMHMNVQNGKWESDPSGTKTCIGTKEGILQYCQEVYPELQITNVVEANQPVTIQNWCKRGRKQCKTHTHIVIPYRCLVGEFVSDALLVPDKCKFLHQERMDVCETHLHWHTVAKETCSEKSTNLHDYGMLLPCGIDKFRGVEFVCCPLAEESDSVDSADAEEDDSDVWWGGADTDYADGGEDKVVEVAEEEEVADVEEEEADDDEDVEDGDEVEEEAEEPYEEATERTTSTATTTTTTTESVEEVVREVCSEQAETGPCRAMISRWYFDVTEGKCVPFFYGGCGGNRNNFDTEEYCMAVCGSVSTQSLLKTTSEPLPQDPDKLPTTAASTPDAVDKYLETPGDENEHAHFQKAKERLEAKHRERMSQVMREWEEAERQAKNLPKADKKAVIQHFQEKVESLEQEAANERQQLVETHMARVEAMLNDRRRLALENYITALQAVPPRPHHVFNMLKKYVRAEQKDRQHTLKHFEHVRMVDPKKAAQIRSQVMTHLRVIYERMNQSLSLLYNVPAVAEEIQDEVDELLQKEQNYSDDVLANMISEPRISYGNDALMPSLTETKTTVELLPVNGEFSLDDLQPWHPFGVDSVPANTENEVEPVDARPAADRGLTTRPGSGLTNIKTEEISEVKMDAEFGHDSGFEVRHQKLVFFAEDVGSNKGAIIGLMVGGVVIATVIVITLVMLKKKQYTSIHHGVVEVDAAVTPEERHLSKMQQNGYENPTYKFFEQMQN
UniProt P08592, residues 18-770: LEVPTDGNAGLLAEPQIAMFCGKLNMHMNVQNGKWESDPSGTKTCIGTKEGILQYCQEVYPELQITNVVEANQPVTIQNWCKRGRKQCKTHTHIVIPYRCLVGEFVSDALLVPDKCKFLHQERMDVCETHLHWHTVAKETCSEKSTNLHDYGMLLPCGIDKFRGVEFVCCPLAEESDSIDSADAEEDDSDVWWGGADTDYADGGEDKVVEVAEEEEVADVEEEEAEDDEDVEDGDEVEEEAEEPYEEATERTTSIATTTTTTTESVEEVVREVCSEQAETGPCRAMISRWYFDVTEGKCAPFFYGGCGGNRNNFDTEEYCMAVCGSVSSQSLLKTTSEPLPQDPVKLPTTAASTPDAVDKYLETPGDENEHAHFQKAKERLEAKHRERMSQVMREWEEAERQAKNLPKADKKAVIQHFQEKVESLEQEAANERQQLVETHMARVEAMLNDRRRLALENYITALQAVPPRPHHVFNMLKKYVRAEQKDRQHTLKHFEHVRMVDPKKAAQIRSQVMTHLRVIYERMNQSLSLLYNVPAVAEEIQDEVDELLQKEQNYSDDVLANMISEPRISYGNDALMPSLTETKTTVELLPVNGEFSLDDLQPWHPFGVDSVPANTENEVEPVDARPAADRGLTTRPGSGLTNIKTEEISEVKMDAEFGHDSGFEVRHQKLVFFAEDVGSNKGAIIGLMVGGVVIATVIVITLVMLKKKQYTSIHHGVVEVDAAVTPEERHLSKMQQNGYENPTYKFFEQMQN
UniProt P56818, residues 46-501: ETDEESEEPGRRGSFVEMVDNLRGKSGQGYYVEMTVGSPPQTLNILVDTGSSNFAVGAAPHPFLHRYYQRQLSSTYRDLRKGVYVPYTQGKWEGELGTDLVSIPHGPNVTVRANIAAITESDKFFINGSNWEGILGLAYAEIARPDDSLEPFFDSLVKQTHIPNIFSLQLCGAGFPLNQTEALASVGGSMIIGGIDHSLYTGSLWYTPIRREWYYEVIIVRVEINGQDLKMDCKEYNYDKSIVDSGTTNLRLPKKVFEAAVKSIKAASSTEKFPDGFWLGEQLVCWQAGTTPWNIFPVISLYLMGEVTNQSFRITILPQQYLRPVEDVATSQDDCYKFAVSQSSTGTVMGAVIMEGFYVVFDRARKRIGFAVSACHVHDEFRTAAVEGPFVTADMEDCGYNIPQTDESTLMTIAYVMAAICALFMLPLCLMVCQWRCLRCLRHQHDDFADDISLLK
UniProt Q64605, residues 30-1907: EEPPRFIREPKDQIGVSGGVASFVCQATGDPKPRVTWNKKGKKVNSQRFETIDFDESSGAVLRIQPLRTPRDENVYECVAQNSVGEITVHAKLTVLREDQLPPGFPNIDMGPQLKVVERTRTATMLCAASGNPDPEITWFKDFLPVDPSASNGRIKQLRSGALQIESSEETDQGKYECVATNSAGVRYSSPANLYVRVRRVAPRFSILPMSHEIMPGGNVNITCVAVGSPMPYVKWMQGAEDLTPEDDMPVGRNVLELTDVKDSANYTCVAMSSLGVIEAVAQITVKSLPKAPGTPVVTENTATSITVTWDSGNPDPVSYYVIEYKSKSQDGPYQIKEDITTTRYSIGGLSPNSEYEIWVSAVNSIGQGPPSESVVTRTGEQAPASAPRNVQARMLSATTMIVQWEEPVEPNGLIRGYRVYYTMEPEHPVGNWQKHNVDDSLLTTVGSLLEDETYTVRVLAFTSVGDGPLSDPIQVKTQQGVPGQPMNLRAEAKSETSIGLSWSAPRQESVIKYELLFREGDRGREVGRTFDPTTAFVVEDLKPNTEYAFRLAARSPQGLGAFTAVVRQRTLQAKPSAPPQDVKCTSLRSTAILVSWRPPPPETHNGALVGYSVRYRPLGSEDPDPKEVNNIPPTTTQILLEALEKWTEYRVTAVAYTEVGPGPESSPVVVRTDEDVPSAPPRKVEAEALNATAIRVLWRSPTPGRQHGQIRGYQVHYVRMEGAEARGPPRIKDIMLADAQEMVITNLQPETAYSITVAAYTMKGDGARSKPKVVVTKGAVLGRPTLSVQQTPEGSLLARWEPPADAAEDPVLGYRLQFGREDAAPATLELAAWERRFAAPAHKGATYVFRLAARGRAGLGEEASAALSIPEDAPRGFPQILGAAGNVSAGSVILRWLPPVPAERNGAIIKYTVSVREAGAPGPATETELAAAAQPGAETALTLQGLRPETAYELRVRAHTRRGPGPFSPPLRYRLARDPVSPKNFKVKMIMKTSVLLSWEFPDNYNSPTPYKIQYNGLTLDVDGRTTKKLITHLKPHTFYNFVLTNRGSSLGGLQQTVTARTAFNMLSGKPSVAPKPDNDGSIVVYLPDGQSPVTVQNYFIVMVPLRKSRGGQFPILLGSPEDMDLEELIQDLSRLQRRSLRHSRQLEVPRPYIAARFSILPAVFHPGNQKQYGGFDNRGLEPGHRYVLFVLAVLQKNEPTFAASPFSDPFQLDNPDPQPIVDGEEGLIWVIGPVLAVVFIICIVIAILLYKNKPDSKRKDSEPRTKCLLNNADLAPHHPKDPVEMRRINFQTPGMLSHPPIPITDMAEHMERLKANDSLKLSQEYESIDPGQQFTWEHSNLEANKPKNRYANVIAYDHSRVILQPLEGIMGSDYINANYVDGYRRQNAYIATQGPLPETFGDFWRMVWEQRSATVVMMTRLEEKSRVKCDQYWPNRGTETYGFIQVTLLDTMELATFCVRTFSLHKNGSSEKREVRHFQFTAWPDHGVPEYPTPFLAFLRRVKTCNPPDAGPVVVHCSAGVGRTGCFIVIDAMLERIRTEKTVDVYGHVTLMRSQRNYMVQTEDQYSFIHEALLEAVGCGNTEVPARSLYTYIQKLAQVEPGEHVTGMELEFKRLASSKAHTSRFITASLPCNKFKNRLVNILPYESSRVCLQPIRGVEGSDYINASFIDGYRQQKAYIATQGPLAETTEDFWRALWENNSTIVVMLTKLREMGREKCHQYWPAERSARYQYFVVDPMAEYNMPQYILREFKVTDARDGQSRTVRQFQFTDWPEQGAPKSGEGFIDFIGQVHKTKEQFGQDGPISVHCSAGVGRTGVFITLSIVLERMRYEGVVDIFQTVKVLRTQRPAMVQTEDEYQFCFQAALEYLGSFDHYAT

No constants are given. Whether binding was seen depends on the method and setting. In cells and extracts the contact can be indirect. Some binding calls cover weakened binding; strength is not graded here.

The target of assay [1] is APP, endogenous full length, mouse forebrain (mouse) (UniProt P12023). The experiment in a line: co-immunoprecipitation from mouse brain homogenates, serially increased detergent stringency.
Assay [2] shares this target. The experiment in a line: co-immunoprecipitation from mouse forebrain lysates, full length APP pulled down with anti-BACE1 antibody, rising detergent stringency.
Assay [3] deals with APP, endogenous, rat forebrain (rat) (UniProt P08592). In words: co-immunoprecipitation from rat brain after traumatic brain injury.
For assay [4] the target is unchanged. In words: co-immunoprecipitation from rat brain homogenates, various antibodies.
Assay [5] shares this target. In words: co-immunoprecipitation from rat forebrain lysates, IP with antibody to the C-terminus of APP.

As to “BACE1, endogenous, mouse forebrain (from UniProt P56818 46-501) (enzyme)”, the binding result in assay [1] and in assay [2] was “binds” each time.
Turning to “PTPσ, endogenous, rat forebrain (from UniProt Q64605 30-1907) (receptor)”, the binding entry in assay [3], in assay [4] and in assay [5] was “binds” each time.
